Measurements reported in PubChem BioAssay AID504791 (Drosophila RNAi Screening Center, 2011)
In all, the deposit lists about 23,000 reagents; shown is an unselected part of those that have a named target and a result. In the full data, 199 (0.86%) are marked active. 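Plate-scaled ratios behind the calls are not deposited; printed light signals are raw; many rows marked increased or decreased are still called inactive.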 A plus sign joins genes that one reagent is predicted to hit.

- Aim: 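Factors in Argonaute-based small RNA production and activity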 (primary screen)
- Cell system: Drosophila S2-derived reporter cells
- Reagents: long dsRNA against Drosophila genes, about 150-250 ng dsRNA per well (siRNA assay); about 80-120 ng (miRNA assay)
- Duration: about 5 days (siRNA assay); about 4 days (miRNA assay)
- Treatment: copper sulfate induction of reporters: 25 µM (siRNA assay); 200 mM stated (miRNA assay), 1-2 days before reading
- Detection: 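Dual luciferase assay: Renilla to firefly signal ratio in each well, scaled to the mean ratio of its plate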
- Reading the numbers: siRNA reporter hit score: higher = 3 marks a strong hit with raised ratio; -3 a strong hit with lowered ratio
- Call rule: 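a well was a first-pass pick when its plate-scaled ratio rose above 1.5 (siRNA assay) or 1.6 (miRNA assay), or dropped below 0.6; a gene counted only if two separate dsRNAs agreed on retest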

gene,amplicon,siRNA reporter hit score,stable siRNA reporter change,"stable assay Renilla, run 1 (luminescence)","stable assay firefly, run 1 (luminescence)",Outcome
Ir68b,DRSC10251,,,5564,3.68e5,inactive
mbo,DRSC16123,,,10345,3.91e5,inactive
CG15082,DRSC06513,,,5779,3.76e5,inactive
RpL22-like,DRSC04582,,,6299,4.78e5,inactive
Gas41,DRSC03156,,,9417,2.24e5,inactive
Sox100B,DRSC15090,,,6620,3.31e5,inactive
Sox100B,DRSC16866,,,6131,3.47e5,inactive
Cks85A,DRSC16562,,,6056,3.81e5,inactive
CG7988,DRSC16358,,,6006,2.83e5,inactive
Df31,DRSC03738,,,34562,4.80e5,inactive
Df31,DRSC22163,,,11028,7.26e5,inactive
CG14142,DRSC10145,,,6662,3.97e5,inactive
CG13771,DRSC02277,,,7890,3.49e5,inactive
Ak2,DRSC04043,,,6952,6.20e5,inactive
CG6421,DRSC07420,,,6139,3.65e5,inactive
Vha68-3,DRSC02809,,,8565,4.66e5,inactive
Or47a,DRSC07491,,,6255,3.53e5,inactive
Atg101,DRSC20020,,,5784,3.99e5,inactive
LS2,DRSC04340,,,7110,4.84e5,inactive
Cul1,DRSC07645,,,8547,4.68e5,inactive
l(2)05714,DRSC03118,,,12554,4.89e5,inactive
Hip14,DRSC10570,,,11317,4.97e5,inactive
RabX1,DRSC04678,,,6090,3.39e5,inactive
CG18171,DRSC08524,,,6582,3.65e5,inactive
Ctns,DRSC15175,,reporter ratio raised past the hit cutoff,4960,1.29e5,active
CG10185,DRSC14205,,,6696,3.61e5,inactive
CG14070,DRSC02373,,,8226,4.61e5,inactive
CG32447,DRSC11732,,,8354,2.79e5,inactive
CG32447,DRSC11805,,,7083,4.53e5,inactive
wal,DRSC07717,,,8671,4.17e5,inactive
Trpml + CG42638,DRSC11032,,,7682,2.75e5,inactive
Uch,DRSC00797,,,10595,4.24e5,inactive
trus,DRSC15772,,,6132,4.50e5,inactive
Iswi,DRSC07446,,reporter ratio raised past the hit cutoff,7083,2.05e5,active
grn,DRSC12666,,,4680,2.48e5,inactive
grn,DRSC16961,,,6631,4.41e5,inactive
Atg6,DRSC15798,3,,9630,3.42e5,inactive
LPCAT,DRSC18157,,,4071,3.53e5,inactive
LPCAT,DRSC18257,,,6590,5.42e5,inactive
obe,DRSC15736,,,9222,6.63e5,inactive
CG7755,DRSC07040,,,6231,3.48e5,inactive
HSPBAP1,DRSC14567,,,6419,4.34e5,inactive
CG43316,DRSC06296,,,5431,3.13e5,inactive
CG43316,DRSC06297,,,6943,3.50e5,inactive
CG4709,DRSC02772,,,7110,2.86e5,inactive
CG5910,DRSC11786,,,7356,4.47e5,inactive
CG6330,DRSC16022,,,7686,4.04e5,inactive
grass,DRSC15911,,,6615,3.23e5,inactive
CG13871,DRSC06430,,,6811,3.23e5,inactive
ind,DRSC11355,,,5303,2.09e5,inactive
ind,DRSC23095,,,3527,2.36e5,inactive
CG12355,DRSC09381,,,4779,4.34e5,inactive
CG12355,DRSC09883,,,6451,4.85e5,inactive
iav,DRSC18363,,,6354,3.09e5,inactive
GstD3,DRSC15571,,,6846,4.07e5,inactive

Targets above whose gene name begins with D or d:
gene,amplicon,siRNA reporter hit score,stable siRNA reporter change,"stable assay Renilla, run 1 (luminescence)","stable assay firefly, run 1 (luminescence)",Outcome
Df31,DRSC03738,,,34562,4.80e5,inactive
Df31,DRSC22163,,,11028,7.26e5,inactive

Further reagents follow:
gene,amplicon,siRNA reporter hit score,stable siRNA reporter change,"stable assay Renilla, run 1 (luminescence)","stable assay firefly, run 1 (luminescence)",Outcome
CG6565,DRSC02970,,,77384,1.80e6,inactive
ORY,DRSC22883,,,3251,4.41e5,inactive
slou,DRSC17058,,,7064,3.85e5,inactive
LRR,DRSC06444,,,6343,3.40e5,inactive
ND-B12,DRSC04060,,,7750,4.61e5,inactive
CG13653,DRSC14653,,,7038,3.34e5,inactive
CG8620,DRSC11020,,,5475,3.31e5,inactive
CG11475,DRSC04113,,,63908,3.55e5,inactive
CG11537,DRSC08200,,,8033,4.64e5,inactive
CG9784,DRSC20210,,,5543,4.32e5,inactive
retn,DRSC04679,,,6295,3.38e5,inactive
sip1,DRSC03609,,,8098,3.69e5,inactive
sip1,DRSC22648,,,4151,3.86e5,inactive
CG12420,DRSC14514,,,4319,3.25e5,inactive
CatB,DRSC03194,,,6806,8.56e5,inactive
CG14000,DRSC02332,,,8650,4.45e5,inactive
Cdc45,DRSC17747,,reporter ratio lowered past the hit cutoff,7932,7.52e5,inactive
Cdc45,DRSC18164,,,6180,4.26e5,inactive
CG5079,DRSC15713,,,4811,1.60e5,inactive
CG5079,DRSC23061,,,4240,2.57e5,inactive
nom,DRSC16389,,,7055,3.86e5,inactive
CG7044,DRSC16180,,,9106,4.47e5,inactive
CG12374,DRSC06143,,,5008,2.83e5,inactive
pav,DRSC08730,,,7888,3.72e5,inactive
rsh,DRSC18966,,,6020,4.77e5,inactive
rsh,DRSC19816,,,4355,3.31e5,inactive
Surf6,DRSC15588,,,11105,3.58e5,inactive
CG8560,DRSC10994,,,9109,3.81e5,inactive
